This passage reports binding result and Kd results from article PMC11239674.

Data set [1] concerns the target T1, AtGRP7short (Arabidopsis thaliana) (UniProt Q03250).
T1 sequence (looked up): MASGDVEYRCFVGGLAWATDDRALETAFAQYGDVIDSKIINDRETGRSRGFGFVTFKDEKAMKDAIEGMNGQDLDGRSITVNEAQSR
Description: MST. The note with it: 25 mM Tris-HCl pH 8.0, 150 mM NaCl (150 mM LiCl for Sc1 LiCl), 1 mM DTT, 0.1 mg/ml BSA, 20 nM Cy5-RNA, about 2 min incubation, temperature not stated, recombinant protein, residues 1-87, protein details: N-terminal 6xHis, thrombin site, His removed, label: Cy5-UTP.

For data set [2], the target named is T2, AtGRP7YtoE Y103E,Y111E,Y118E,Y131E,Y138E,Y148E,Y159E,Y167E (Arabidopsis thaliana) (UniProt Q03250).
T2 sequence (looked up): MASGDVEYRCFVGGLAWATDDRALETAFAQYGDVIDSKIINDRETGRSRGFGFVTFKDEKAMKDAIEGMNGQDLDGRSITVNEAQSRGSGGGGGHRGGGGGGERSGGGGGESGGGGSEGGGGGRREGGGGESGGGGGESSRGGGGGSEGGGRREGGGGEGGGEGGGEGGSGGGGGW
Description: MST. The following applies: 25 mM Tris-HCl pH 8.0, 150 mM NaCl (150 mM LiCl for Sc1 LiCl), 1 mM DTT, 0.1 mg/ml BSA; 20 nM Cy5-RNA; about 2 min incubation; temperature not stated; recombinant protein; residues 1-176; protein details: N-terminal 6xHis, thrombin site, His removed; label: Cy5-UTP.

For some assays here: Negatives hold for the conditions tested. Tags and fusion partners may be left off the protein sequences shown.

Regarding “AUGGGAAAUCGUUGUGCUAGAACUCCUUGUUGUACAAAGUUGUGGUCAUGUAUAUGCUGCUGCUGCUGCAGCAACAACAAAGCUCGAGCAAGAAGCCAACACGGGUCUAAAGGGAAUGUCUAUUCGAUAAACAGAAUUGAGAAAUGGGAAGAAAAGAUAACAGAAGCUAACAACAAUGGCAAGAUUCUGGUGGUGUAUUUCAGCGCGCCGUGGUGUGUACCUUGUAAAAAGAUAGAACCAGUAUUCAGAGAACUUGCUUCUAGAUACCCUUCAAUGAUUUUUGUAACCAUUGAUGUGGAAGAACUCGCUGAGUUUAGUGAUGAAUGGAAUGUGGAAGCUACACCAACUAUAGUGUUUCUUAAAGAUGGGAGACAAAUGGAUAAGCUUGUUGGUGCUGAAACCUCAGAGCUUCAGAAGAAAACAGCUGCAGCUGCUGAACUCUUACUCAGAAAACCAUAA [BnaCNNG53670D]”, the binding result in data set [1] (flanks not given) was “no binding”. Broadly, the Kd is the concentration at which binding is half-saturated. Take “GGAUGGCGAUGUCUUUCUCAGGAGCUGUUCUCACUGGUAUGGCUUCUUCUUUCCACAGCGGAGCCAAGCAGAGCAGCUUCGGCGCUGUCAGAGUCGGCCAGAAAACUCAGUUCGUCGUCGUUUCUCAACGCAAGAAGUCGUUGAUCUACGCCGCUAAAGGUGACGGCAACAUCCUCGAUGACCUCAACGAGGCCACAAAGAAAGCUUCAGAUUUCGUGACGGAUAAAACAAAAGAGGCAUUAGCAGAUGGUGAGAAAGCGAAAGACUACGUUGUUGAAAAAAACAGUGAAACCGCAGAUACAUUGGGUAAAGAAGCUGAGAAAGCUGCGGCGUAUGUGGAGGAGAAAGGAAAAGAAGCCGCAAACAAGGCGGCAGAGUUCGCGGAGGGUAAAGCAGGAGAGGCUAAGGAUGCCACAAAGUAG [AtCOR15A]”: in data set [2], the dissociation constant (Kd) is 27.9 µM. For “GGAUGGCGUCCCCUGAUGUUGAGUACCGGUGCUUCGUUGGAGGUCUAGCUUGGGCCACCGACGACAGAGCUCUCGAGACCGCCUUCUCCCAGUUCGGCGACGUUCUCGAUUCCAAGAUCAUUAACGAUCGUGAGACGGGACGAUCAAGGGGAUUCGGAUUCGUCACCUUCAAGGAUGAGAAGUCGAUGAAGGACGCCAUCGAGGGGAUGAACGGACAGGAUCUCGACGGUCGCAGCAUCACUGUUAACGAGGCUCAGUCUCGUGGAAGCGGUGGUGGCGGAGGAGGCCGCGGCGGAGGCGGUGGUGGAUACCGCAGCGGAGGCGGUGGUGGUUACGGAGGAGGCGGUGGUGGAUACGGUGGAGGUGGUGGAAGACGCGAGGGUGGUUACAGUGGUGGCGGUGGAGGUGGUUACUCGUCGAGAGGAGGUGGUGGCGGUGGAGGUUACGGUGGCAGGCGUGAUGGUGGUGAAGGUGGAGGUUACGGAGGAAGCGGUGGUGGUGGUUGGUAA [BnGRP7]”, the binding result in data set [1] is “no binding”. For the sequence “GGAUGGCGUCCGGUGAUGUUGAGUAUCGGUGCUUCGUUGGAGGUCUAGCAUGGGCCACUGAUGACAGAGCUCUUGAGACUGCCUUCGCUCAAUACGGCGACGUUAUUGAUUCCAAGAUCAUUAACGAUCGUGAGACUGGAAGAUCAAGGGGAUUCGGAUUCGUCACCUUCAAGGAUGAGAAAGCCAUGAAGGAUGCGAUUGAGGGAAUGAACGGACAAGAUCUCGAUGGCCGUAGCAUCACUGUUAACGAGGCUCAGUCACGAGGAAGCGGUGGCGGCGGAGGCCACCGUGGAGGUGGUGGCGGUGGAUACCGCAGCGGCGGUGGUGGAGGUUACUCCGGUGGAGGUGGUAGCUACGGAGGUGGCGGCGGUAGACGCGAGGGUGGAGGAGGAUACAGCGGCGGCGGCGGCGGUUACUCCUCAAGAGGUGGUGGUGGCGGAAGCUACGGUGGUGGAAGACGUGAGGGAGGAGGAGGAUACGGUGGUGGUGAAGGAGGAGGUUACGGAGGAAGCGGUGGUGGUGGAGGAUGGUAA [AtGRP7]”, the binding result in data set [1] is “no binding”. Consider “GGCAUCACACCUUCCCUCUCUUCACUGUAAACCUACUACAUCUCCCCCUCUCUCUCAUUUCAAUGGCGUCCCCUGAUGUUGAGUACCGGUGCUUCGUUGGAGGUCUAGCUUGGGCCACCGACGACAGAGCUCUCGAGACCGCCUUCUCCCAGUUCGGCGACGUUCUCGAUUCCAAGAUCAUUAACGAUCGUGAGACGGGACGAUCAAGGGGAUUCGGAUUCGUCACCUUCAAGGAUGAGAAGUCGAUGAAGGACGCCAUCGAGGGGAUGAACGGACAGGAUCUCGACGGUCGCAGCAUCACUGUUAACGAGGCUCAGUCUCGUGGAAGCGGUGGUGGCGGAGGAGGCCGCGGCGGAGGCGGUGGUGGAUACCGCAGCGGAGGCGGUGGUGGUUACGGAGGAGGCGGUGGUGGAUACGGUGGAGGUGGUGGAAGACGCGAGGGUGGUUACAGUGGUGGCGGUGGAGGUGGUUACUCGUCGAGAGGAGGUGGUGGCGGUGGAGGUUACGGUGGCAGGCGUGAUGGUGGUGAAGGUGGAGGUUACGGAGGAAGCGGUGGUGGUGGUUGGUAAUUAGAUUUUAGAGUUUGAGGUUGUUGUUGUGUCUGUUCCGUUUCUGGGUUCGGGUUUAUGUUUCUAUCUCUAUGUGUUAUGUUUGGUUCUUGCUGUUUUGGUUGUAACAGUUCGUGGUUAGGUAUCUGAUAUCUGGAAACGCAAUGUUAAAUCACUUUUUCAUUAUCUUGCCGUGUUUUAUUUUUUAAGUUUAACAAAU [BnGRP7]”, for which, in data set [1], the binding result was “no binding”.
